Measurements from paper doi:10.1101/2021.05.16.444380.

Target: T1, Flag-WtipN (Xenopus) (UniProt A9LS46)
T1 sequence: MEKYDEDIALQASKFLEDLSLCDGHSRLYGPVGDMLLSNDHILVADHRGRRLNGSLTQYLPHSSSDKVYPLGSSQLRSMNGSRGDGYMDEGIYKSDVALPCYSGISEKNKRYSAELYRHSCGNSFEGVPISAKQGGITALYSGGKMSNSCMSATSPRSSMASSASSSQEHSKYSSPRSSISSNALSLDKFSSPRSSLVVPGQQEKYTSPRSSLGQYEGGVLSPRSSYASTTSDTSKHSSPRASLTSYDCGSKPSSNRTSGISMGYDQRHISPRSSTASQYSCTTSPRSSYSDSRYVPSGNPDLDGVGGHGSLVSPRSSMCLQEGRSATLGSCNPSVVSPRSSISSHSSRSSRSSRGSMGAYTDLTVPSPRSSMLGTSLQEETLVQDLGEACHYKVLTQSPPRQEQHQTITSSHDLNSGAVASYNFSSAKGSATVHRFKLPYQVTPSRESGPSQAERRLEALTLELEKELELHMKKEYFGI
Assay: co-IP

## GFP-SSX2IP (Xenopus)
  binding: binds

Results are given in words; binding and its absence hold for the method and conditions named. Binding seen in cells or lysates may run through a third protein. Binding can be weak; no strength is given. Where a sequence is shown, tags or fusion partners need not be part of it.
